PubChem BioAssay AID588590 (National Center for Advancing Translational Sciences (NCATS), 2011)
The whole screen tested about 390,000 compounds, of which about 4,000 (1%) were called active. The shares of active, inactive and inconclusive entries below differ from those in the screen. Calls follow the shape of the dose curve; as a rule, active = well fitted inhibition curve with a large enough effect; inconclusive = small, poorly fitted or top-dose-only effect, or another doubt; inactive = no such curve, though single readings can be large or run the other way. A potency beside an inconclusive call is a rough fit, not a confirmed value.

Protein sequences, listed by entry. Tags and fused reporters are not part of them. Lines headed by an entry give the natural chain unless they say otherwise; changes in a name come on top.
UniProt Q9UNA4: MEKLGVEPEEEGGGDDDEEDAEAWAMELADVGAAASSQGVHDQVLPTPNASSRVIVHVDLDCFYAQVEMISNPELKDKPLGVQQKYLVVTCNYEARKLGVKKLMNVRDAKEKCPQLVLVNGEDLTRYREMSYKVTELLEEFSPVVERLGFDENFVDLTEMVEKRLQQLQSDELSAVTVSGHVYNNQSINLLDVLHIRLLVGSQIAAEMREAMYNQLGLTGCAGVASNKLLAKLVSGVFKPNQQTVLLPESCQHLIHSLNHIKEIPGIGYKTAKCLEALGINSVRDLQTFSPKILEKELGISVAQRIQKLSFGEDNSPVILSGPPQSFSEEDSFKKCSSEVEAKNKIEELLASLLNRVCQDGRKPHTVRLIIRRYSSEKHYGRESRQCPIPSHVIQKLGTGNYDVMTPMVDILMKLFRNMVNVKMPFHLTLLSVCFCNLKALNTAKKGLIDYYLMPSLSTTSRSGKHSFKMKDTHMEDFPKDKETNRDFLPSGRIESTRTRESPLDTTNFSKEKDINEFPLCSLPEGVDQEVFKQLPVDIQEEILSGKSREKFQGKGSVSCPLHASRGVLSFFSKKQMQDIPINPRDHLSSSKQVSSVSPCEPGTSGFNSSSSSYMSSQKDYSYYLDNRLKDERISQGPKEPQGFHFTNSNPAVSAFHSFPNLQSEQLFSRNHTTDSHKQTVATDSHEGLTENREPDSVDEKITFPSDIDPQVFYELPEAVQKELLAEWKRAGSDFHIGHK

These compounds were tested against DNA polymerase iota (Homo sapiens) (UniProt Q9UNA4) (assay: qHTS for Inhibitors of Polymerase Iota). Conditions: Pol iota fluorescent replication assay, 10 min; series mostly up to 115 µM; activity, negative = inhibition: at the top concentration.
In short: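 Fluorescent replication assay read twice, at 0 min and 10 min after adding 50 nM (final) substrate. Enzyme (10 nM) and compounds were first incubated 15 min at room temperature; enzyme-free buffer wells were negative controls.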
Potency is read from the fitted curve at half-maximal effect.

SMILES	activity, negative = inhibition	Potency
CC(C)C(=O)Nc1ccc(S(=O)(=O)N2CCC(c3nc4ccccc4[nH]3)CC2)cc1	inactive: 14.1%	
CC[C@@H](C)[C@@H]1CN([C@@H](CN2CCC[C@H]2CN2C(N)=NC[C@H]2CC(C)C)C(C)C)C(=N)N1CCc1ccc(Cl)c(Cl)c1		inconclusive: 1.12 µM [inhibitor, full curve, poor fit]
O=C(O)c1ccc(-n2nnnc2SCc2ccccc2)cc1		inconclusive: 100 µM [inhibitor, single point]
Cn1c2c(c3ccccc31)CCN1CCC[C@]21c1ccccc1		inconclusive: 20 µM [inhibitor, full curve]
COc1cccc(CNC(=O)c2cc(C)nc3c2c(C)nn3-c2cccc(F)c2)c1	inactive: 1.03%	
O=C(Nc1ccc2nc(SCC(=O)N3CCCc4ccccc43)sc2c1)c1ccccc1		inconclusive: 89.1 µM [inhibitor, single point]
Cc1cc(C)c2c(n1)sc1c(O)cc(=O)[nH]c12		inconclusive: 10 µM [inhibitor, full curve, poor fit]
COc1cc(CN(C(=O)c2ccco2)C2CCS(=O)(=O)C2)cc(OC)c1OC (stereo not drawn)	inactive: 27.8%	
CCOC(=O)C1=C(O)C(=O)N(c2ccc(S(N)(=O)=O)cc2)C1c1ccc(OC)cc1 (stereo not drawn)		inconclusive: 79.4 µM [inhibitor, partial curve]
Cc1ccc(C(=O)Nc2cccc(C(F)(F)F)c2)cc1Nc1cncnc1		inconclusive: 15.8 µM [inhibitor, partial curve, poor fit]
Cc1nnc(NC(=O)c2ccc3c(c2)NC(=O)CS3)s1	inactive: -14.3%	
CSc1ccccc1NC(=S)Nc1ccc(S(N)(=O)=O)cc1		inconclusive: 89.1 µM [inhibitor, single point]
CCN(C(=O)C1CC1)C1CCS(=O)(=O)C1 (stereo not drawn)		inconclusive: 89.1 µM [inhibitor, single point]
O=C(COCc1cc(-c2ccc3c(c2)OCO3)on1)N1CCN(c2ccccc2)CC1		inconclusive: 79.4 µM [inhibitor, single point]
COc1ccc(Cl)cc1NC(=O)CN(C)C(=O)c1cc(=O)c2ccccc2o1		inconclusive: 89.1 µM [inhibitor, partial curve, poor fit]
COc1cccc(C2=CC(c3cccs3)n3nnnc3N2)c1 (stereo not drawn)		inconclusive: 39.8 µM [inhibitor, full curve, poor fit]
O=C(COc1ccc(/C=N/NC(=O)c2ccccc2O)cc1)Nc1ccccc1		inconclusive: 39.8 µM [inhibitor, single point]
Cc1cccn2c(=O)c3cc(C(N)=S)c(=N)n(CCCOC(C)C)c3nc12		inconclusive: 10 µM [inhibitor, partial curve]
CC1=NN(c2ccccc2)C(=O)/C1=C\c1cn(CCC#N)nc1-c1ccc(Cl)cc1		inconclusive: 10 µM [inhibitor, full curve, poor fit]
Cc1c(C(=O)N2CCN(C(=O)c3ccco3)CC2)oc2c(Cl)cccc12	inactive: 26.9%	
CCOC(=O)N1CCC(c2cc(=O)n3[nH]ccc3n2)CC1		inconclusive: 89.1 µM [inhibitor, single point]
O=C(Nc1nnc(Cc2ccc(Cl)cc2)s1)c1ccco1		inconclusive: 79.4 µM [inhibitor, partial curve, poor fit]

SMILES	activity, negative = inhibition	Potency
Fc1ccc(-c2noc3ncnc(NCC4CCN(Cc5ccc(Cl)cc5)CC4)c23)cc1	inactive: -3.08%	
CC(=O)NCc1ccc(C(=O)CSc2nnc(-c3ccncc3)n2Cc2ccccc2)o1		active: 22.4 µM
O=C(Nc1nnc(COc2ccc(Br)cc2)s1)c1ccco1		inconclusive: 79.4 µM [inhibitor, partial curve]
COc1cccc(C#Cc2c(C=O)n(C)c3ccccc23)c1		inconclusive: 3.55 µM [inhibitor, partial curve, poor fit]
Cc1ccc(CNC(=O)c2nnn(CC(=O)Nc3cc(C)ccc3C)c2N)cc1	inactive: -5.75%	
CCC(=O)OC1(C)C(=O)C=C2C=C(C3CC3)OC=C2C1=O (stereo not drawn)		inconclusive: 17.8 µM [inhibitor, partial curve, poor fit]
CN(C(=O)c1cc2c(s1)-c1ccc(Cl)cc1SC2)c1cccc(C(F)(F)F)c1	inactive: 52.1%	
COc1ccc(OC)c(/C=C/c2cc3ccccc3c[n+]2C)c1	inactive: 10.4%	
N/C(=N\OC(=O)c1ccc(F)cc1)c1nonc1N	inactive: 1.16%	
Cc1cc(C)nc(NN2C(=O)/C(=C/c3ccc(O)cc3)SC2=S)n1		active: 31.6 µM
Cc1ccc(Oc2ccccc2NC(=O)CN2C(=O)NC3(CCCC3)C2=O)cc1		inconclusive: 100 µM [inhibitor, single point]
COc1ccc(N2C(=O)CC(Sc3n[nH]c(-c4cccc(C)c4)n3)C2=O)cc1 (stereo not drawn)		inconclusive: 3.98 µM [inhibitor, full curve, poor fit]
CCc1ccccc1NS(=O)(=O)c1ccc(NC(=O)N2CCCC2)cc1	inactive: 13.6%	
CCOC(=O)c1cc(-c2ccc(F)cc2)n(CCC(=O)NCCc2ccc(C)cc2)c1C	inactive: 4.26%	
Cc1cc(NC(=O)c2cc3cccc([N+](=O)[O-])c3[nH]2)ccc1F		inconclusive: 56.2 µM [inhibitor, partial curve, poor fit]
N#Cc1cnc(NCc2ccc(Cl)cc2Cl)nc1	inactive: 24.9%	
CCCCn1c(O)c(/C=C/C=C/C=Nc2ccccc2)sc1=S	inactive: 1.02%	
COc1cc2c(C#CCCCO)c(-c3ccc(C#N)cc3)oc(=O)c2cc1OC		inconclusive: 3.16 µM [inhibitor, partial curve, poor fit]
Cc1ccc2ccccc2[n+]1CCCS(=O)(=O)[O-]		inconclusive: 22.4 µM [inhibitor, partial curve, poor fit]
COc1ccc(-c2nc(NC(=O)CSc3nnc4ccccn34)ns2)cc1		inconclusive: 17.8 µM [inhibitor, full curve, poor fit]
Cc1nn(C(C)C(=O)NCCCN2CCCCCC2)c(=O)c2c1sc1ccccc12 (stereo not drawn)		inconclusive: 6.31 µM [inhibitor, full curve, poor fit]
